Measurements: PubChem BioAssay AID1458 (National Center for Advancing Translational Sciences (NCATS), 2008)
Out of some 210,000 compounds screened, about 5,900 (2.8%) were called active. Another 5% or so got no clear call; they are omitted. Calls come from the whole dose curve; as a rule, active = well fitted activation curve with a large enough effect; inconclusive = small, poorly fitted or top-dose-only effect; inactive = no such curve, though single readings can be large or run the other way. The list shows a part of the results, in another mix than the full data. Entries without a call were filed so in the source.
Potency is the fitted concentration of half-maximal effect.

Test: qHTS Assay for Enhancers of SMN2 Splice Variant Expression; note: nearly all actives have a fitted effect of over 55% in size; for activity change, positive = activation: % of control where 0% means no effect
Conditions: HEK293 SMN2-luciferase splicing reporter, luminescence, 30-36 h; activity change, positive = activation: at 46.1 µM (top of the series) unless noted
How it was run: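 HEK293 cells carry an SMN2 […]–luciferase reporter in which exon 7 inclusion puts luciferase in frame. Cells were plated 10-12 h before compound addition, then incubated 30-36 h at 37C. ONE-Glo luminescence was read; sodium butyrate at 4.5 mM final served as control.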
`CCn1nnnc1SCC(=O)Nc1cc(C)on1` gave an activity change, positive = activation of 40.7%.
In the case of `COc1cccc(NS(=O)(=O)c2ccc3[nH]cc(C(=O)NCCc4ccccc4)c(=O)c3c2)c1`, the “activity change, positive = activation” value is reported as inactive: -39.3%.
In the case of `CSc1ccc(NC(=O)N2CCN(c3nc4ccccc4s3)CC2)cc1`, the activity change, positive = activation is reported as -53.2%.
`CC12CCC(=O)N1C(C(=O)Nc1cccc3ccccc13)CS2` (configuration not stated) showed an activity change, positive = activation of 45.7%.
For `CC(=O)Nc1ccc2nc(C)n(Cc3ccc(Cl)cc3)c(=O)c2c1`, the Potency was active: 12.6 µM.
In the case of `CCn1c(=O)n(CC)c2cc(S(=O)(=O)N3CCC(c4ccccc4)CC3)ccc21`, the activity change, positive = activation is reported as -31.8%.
For `O=C1N=C(O)CN1/N=C\c1ccc(-c2ccc([N+](=O)[O-])cc2)o1`, the “activity change, positive = activation” value was inactive: -16.8% [at 20.6 µM].
With `CCOC(=O)c1cn(Cc2ccccc2)nn1` the activity change, positive = activation was -9.23%.
With `C/C(N=NC(=[SH+])SCc1ccccc1)=C1\C=CC=CN1.[Cl][Cu]` the activity change, positive = activation was inactive: -63.9% [at 9.22 µM].
With `c1ccc(CCc2nc(-c3ccccn3)no2)cc1` the Potency was active: 11.2 µM.
For `CCC1Oc2ccc(C)cc2N(CC(=O)NCCCN2CCN(Cc3ccccc3)CC2)C1=O` (configuration not stated), the activity change, positive = activation was 34.9%.
In the case of `O=C(/C=C/c1cn(-c2ccccc2)nc1-c1cccnc1)c1ccco1`, the “activity change, positive = activation” value is reported as inactive: -37%.
`O=C(CCn1c(=O)c2ccccc2n(Cc2cccnc2)c1=O)NCc1ccc2c(c1)OCO2` gave an activity change, positive = activation of 31.1%.
Compound `CC1=NN(c2nc3ccccc3[nH]2)C(=O)/C1=C/N(C)C` has an activity change, positive = activation of 42.7%.
For `Cc1cc(N2CCOCC2)nc2ccc(NC(=O)CCC(=O)N3CCCCC3)cc12`, the Potency was active: 8.91 µM.
`COc1ccc2c(CC(=O)OCC(=O)Nc3ccc4c(c3)OCO4)coc2c1` showed an activity change, positive = activation of 33.7%.
With `Cc1csc(NC(=O)CCc2c(C)nc3cc(-c4ccc(Cl)cc4)nn3c2C)n1` the “activity change, positive = activation” value was inactive: -83.2%.
In the case of `Oc1ccc(/C=N/NC2=NCCCCC2)c(O)c1`, the Potency is reported as active: 12.6 µM.
Work on `CC(C)CCNC(=O)CCS(=O)(=O)c1cccc2nonc12` yielded an activity change, positive = activation of 23.9%.
`Clc1ccc(-c2csc3ncnc(N4CCc5ccccc5C4)c23)cc1` gave an activity change, positive = activation of -32%.
With `COc1ccc(-c2c[n+](CC(=O)OC3CC(C)CCC3C(C)C)c3n2CCC3)cc1` (configuration not stated) the “activity change, positive = activation” value was inactive: -77.9%.
`CCCOc1ccc(NC(=O)C2CCCNC2=O)cc1` (configuration not stated) gave an activity change, positive = activation of 25.7%.
In the case of `CCOc1ccc(OCc2cccc(C(=O)N/N=C/c3cccnc3)c2)cc1`, the Potency is reported as active: 0.126 µM.
For `COc1ccc(CCNC(=O)Cn2nc(C)n3c(cc4cc(F)ccc43)c2=O)cc1OC`, the “activity change, positive = activation” value was inactive: -9.25%.
In the case of `COc1ccc(N2CCN(C(=O)C3Cc4ccccc4CN3C(=O)c3ccccc3)CC2)cc1` (configuration not stated), the activity change, positive = activation is reported as 55.4%.
`Cc1ccc2c(c1)S/C(=C/c1ccc[n+](C)c1)N2CCO` showed an activity change, positive = activation of -63.7%.
`CCOC(=O)N1CCN(C(=O)CSc2ccc3nnc(CCNC(=O)c4ccc(OC)cc4)n3n2)CC1` gave an activity change, positive = activation of -37.5%.
With `CCc1nnc(NC(=O)C2CCC2)s1` the activity change, positive = activation was 46.5%.
For `CSc1nc(-c2ccc(Cl)cc2)nn1S(=O)(=O)c1ccccc1`, the Potency was active: 12.6 µM.
`Cc1cccc(N2C(=O)CC(N3CCN(c4cccc(C(F)(F)F)c4)CC3)C2=O)c1` (configuration not stated) gave an activity change, positive = activation of 32.3%.
Work on `Cc1cc(NCCCN(C)C)n2nc(-c3cccs3)cc2n1` yielded an activity change, positive = activation of -30.4%.
In the case of `Cc1ccc(CNC(=O)C2C3C=CC(C3)C2C(=O)O)cc1` (configuration not stated), the activity change, positive = activation is reported as 25.2%.
Compound `O=C(c1cccc(F)c1F)N1CCCC1` has an activity change, positive = activation of 30.1%.
With `Cc1onc(-c2c(Cl)cccc2Cl)c1C(=O)N/N=C(\N)COc1ccc(Cl)cc1` the activity change, positive = activation was -76.9%.
For `CCOCCc1nnc(NC(=O)c2cc(OC)c(OC)c(OC)c2)s1`, the Potency was active: 15.8 µM.
Work on `CNc1ccc(C(O)(C(F)(F)F)C(F)(F)F)cc1C(O)(C(F)(F)F)C(F)(F)F` yielded an activity change, positive = activation of 26.1%.
`CCOC(=O)N1CCN(C(=O)CSc2nnc(-c3cc(OC)ccc3OC)o2)CC1` gave an activity change, positive = activation of 37.9%.
With `Cc1ccc2[nH]cc(C(=O)CCl)c2c1` the activity change, positive = activation was -84%.
For `N#Cc1ccc(C(=O)Nc2ccn(-c3ccccc3)n2)cc1`, the “activity change, positive = activation” value was inactive: -52.7%.
In the case of `CCOc1ccc(-c2cc(C(=O)N3CCN(C)CC3)c3ccccc3n2)cc1`, the Potency is reported as active: 11.2 µM.
For `COc1ccc(COc2cc(-c3cccc(OC)c3)nc3ccc(NC(=O)c4ccccc4)cc23)cc1`, the “activity change, positive = activation” value was inactive: -2.14%.
In the case of `CCOC(=O)CC1=Nc2ccccc2NC(=O)C1`, the activity change, positive = activation is reported as 39.2%.
In the case of `Cc1ccc2nc3c(c(Nc4ccc5c(c4)OCCO5)c2c1)CCC3`, the “activity change, positive = activation” value is reported as inactive: -39.6%.
`Cc1cc(C)n(/N=C/c2cccc(O)c2)c(=O)c1C(N)=O` showed an activity change, positive = activation of 30.4%.
For `Cc1cccc(NC(=S)N/C(=N/S(=O)(=O)c2ccccc2)c2ccccc2)c1`, the activity change, positive = activation was 31.6%.
With `Cc1ccsc1/C=C1\CCC(C2CCCC2)C1=O` (configuration not stated) the activity change, positive = activation was 109%.
`CCc1nc(Nc2ccncc2)c2oc3ccccc3c2n1` gave an activity change, positive = activation of -31.7%.
`CCC1(c2cccc(Cl)c2)NC(=O)N(Cc2cc(C(=O)OC)c(C)o2)C1=O` (configuration not stated) showed an activity change, positive = activation of -53%.
With `CCOC(=O)C1CCCN(S(=O)(=O)c2cc(OCC(=O)NC3CCCCC3)c(C)cc2Cl)C1` (configuration not stated) the “activity change, positive = activation” value was inactive: -48.7%.
Work on `O=C(Nc1ccc(F)cc1)c1nn(-c2ccccc2)c(=O)cc1Cl` yielded an activity change, positive = activation of -112%.
`CN1CCCC(OC(=O)CCCC(=O)OC2CCCN(C)C2)C1` (configuration not stated) gave an activity change, positive = activation of 50.8%.
Compound `CCOC(=O)c1c(C)oc2c1c(C(c1cccnc1)N1CCN(C)CC1)c(O)c1ccccc12` (configuration not stated) has an activity change, positive = activation of 44.8%.
With `CN(C)c1ccc(/C=N/NC(=O)CCCO)cc1` the “activity change, positive = activation” value was inactive: 13.2%.
Compound `CCN(CC)c1ccc(NC(=O)c2cnc3ccccn3c2=O)c(C)c1` has an activity change, positive = activation of -82.1%.
For `COc1ccccc1-n1c(=O)oc2ccc(Cl)cc2c1=O`, the activity change, positive = activation was -85%.
Compound `Cc1ccc(C)c(N(C(=O)Cn2nnc3ccccc32)C(C(=O)NCc2ccco2)c2ccncc2)c1` (configuration not stated) has an activity change, positive = activation of 33.5%.
With `O=C(c1ccc(Cn2c(=S)[nH]c3ccccc3c2=O)cc1)N1CCN(c2ccccn2)CC1` the “activity change, positive = activation” value was inactive: -97.5%.
In the case of `C=C(C)c1cccc(C(C)(C)NC(=O)N2CCN(C)CC2)c1`, the activity change, positive = activation is reported as 30.7%.
With `Cc1ccc(C(=O)O)cc1S(=O)(=O)N1CCC(C(=O)O)CC1` the Potency was active: 11.2 µM.
In the case of `CSCc1ccc(C(=O)Nc2ccc(C(N)=O)cc2)cc1`, the Potency is reported as active: 11.2 µM.
Compound `Cc1ccc(N2C(=O)CCC2(C(N)=O)c2ccccc2)cc1` (configuration not stated) has an activity change, positive = activation of 30.5%.
For `CC1(C)Cc2ccccc2-c2nnc(SCC(=O)N3CCN(c4ccccc4)CC3)n21`, the activity change, positive = activation was -87.4%.
In the case of `Cc1ccccc1Nc1c(-c2ccccn2)nc2ccccn12`, the activity change, positive = activation is reported as -5.46%.
For `COc1cccc(-n2c(C)nc3c(cnn3-c3ccc(C)cc3)c2=O)c1`, the activity change, positive = activation was -49.5%.
With `CCOC(=O)c1[nH]c2ccccc2c1NC(=O)c1ccc(Br)o1` the “activity change, positive = activation” value was inactive: -60.4%.
For `Cc1ccc(C)n1-c1ccc(NC(=O)c2ccccc2)cc1`, the Potency was active: 11.2 µM.
For `COc1ccc(/C=N/NC(=O)c2ccc(=O)n(C)c2)cc1OC`, the “activity change, positive = activation” value was inactive: 8.46%.
